Data: publication PMC10740258
These are yes or no findings as the source states them, for the method shown. Binding seen in cells or lysates may run through a third protein. A yes stands for co-enrichment or nearness to the bait. Other partners may have been found. Sequences can lack the tags named with a protein.

Protein sequences, listed by entry. Tags and fused reporters are not part of them.
UniProt Q6QI06: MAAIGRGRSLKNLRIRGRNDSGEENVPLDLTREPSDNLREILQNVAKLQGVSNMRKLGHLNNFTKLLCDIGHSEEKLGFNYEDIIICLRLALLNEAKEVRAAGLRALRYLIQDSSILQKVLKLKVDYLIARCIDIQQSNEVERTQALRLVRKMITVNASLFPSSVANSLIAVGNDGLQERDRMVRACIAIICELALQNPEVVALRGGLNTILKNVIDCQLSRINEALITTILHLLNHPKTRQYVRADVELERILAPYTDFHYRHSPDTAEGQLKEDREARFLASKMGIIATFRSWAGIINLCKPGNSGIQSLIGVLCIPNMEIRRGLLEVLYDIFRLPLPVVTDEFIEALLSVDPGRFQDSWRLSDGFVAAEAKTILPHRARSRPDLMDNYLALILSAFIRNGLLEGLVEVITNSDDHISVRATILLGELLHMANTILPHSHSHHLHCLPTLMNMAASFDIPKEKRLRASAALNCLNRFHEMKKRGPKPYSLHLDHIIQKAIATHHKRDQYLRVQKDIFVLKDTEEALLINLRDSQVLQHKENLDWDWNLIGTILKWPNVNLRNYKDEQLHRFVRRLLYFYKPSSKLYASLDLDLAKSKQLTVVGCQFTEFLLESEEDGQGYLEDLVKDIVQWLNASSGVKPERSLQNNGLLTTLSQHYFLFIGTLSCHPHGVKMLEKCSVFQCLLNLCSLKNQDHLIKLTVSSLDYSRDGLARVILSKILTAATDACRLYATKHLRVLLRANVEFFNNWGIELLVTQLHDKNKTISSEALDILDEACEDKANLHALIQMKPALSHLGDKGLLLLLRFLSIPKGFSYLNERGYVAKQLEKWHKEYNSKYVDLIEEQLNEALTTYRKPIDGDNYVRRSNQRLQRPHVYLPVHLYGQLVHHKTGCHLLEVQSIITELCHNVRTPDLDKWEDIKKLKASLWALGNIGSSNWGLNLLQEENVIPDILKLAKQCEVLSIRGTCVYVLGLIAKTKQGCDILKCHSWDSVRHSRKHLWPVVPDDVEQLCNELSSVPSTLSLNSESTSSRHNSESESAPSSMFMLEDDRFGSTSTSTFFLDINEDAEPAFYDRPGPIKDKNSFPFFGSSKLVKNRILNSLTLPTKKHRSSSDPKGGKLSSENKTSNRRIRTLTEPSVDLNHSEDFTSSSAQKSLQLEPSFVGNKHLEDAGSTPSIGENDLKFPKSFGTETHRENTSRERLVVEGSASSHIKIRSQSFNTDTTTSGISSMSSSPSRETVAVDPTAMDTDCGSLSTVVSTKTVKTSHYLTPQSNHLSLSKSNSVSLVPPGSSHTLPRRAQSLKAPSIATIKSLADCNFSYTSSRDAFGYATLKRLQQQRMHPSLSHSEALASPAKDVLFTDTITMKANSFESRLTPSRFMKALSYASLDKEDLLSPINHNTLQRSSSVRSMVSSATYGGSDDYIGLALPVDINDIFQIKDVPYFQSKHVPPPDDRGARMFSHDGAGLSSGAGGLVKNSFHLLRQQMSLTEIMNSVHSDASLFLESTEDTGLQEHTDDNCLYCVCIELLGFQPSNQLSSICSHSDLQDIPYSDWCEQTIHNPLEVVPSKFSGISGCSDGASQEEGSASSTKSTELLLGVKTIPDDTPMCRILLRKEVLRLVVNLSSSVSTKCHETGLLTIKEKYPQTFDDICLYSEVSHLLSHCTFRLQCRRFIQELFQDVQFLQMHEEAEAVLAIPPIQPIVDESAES
UniProt Q8K4Q0: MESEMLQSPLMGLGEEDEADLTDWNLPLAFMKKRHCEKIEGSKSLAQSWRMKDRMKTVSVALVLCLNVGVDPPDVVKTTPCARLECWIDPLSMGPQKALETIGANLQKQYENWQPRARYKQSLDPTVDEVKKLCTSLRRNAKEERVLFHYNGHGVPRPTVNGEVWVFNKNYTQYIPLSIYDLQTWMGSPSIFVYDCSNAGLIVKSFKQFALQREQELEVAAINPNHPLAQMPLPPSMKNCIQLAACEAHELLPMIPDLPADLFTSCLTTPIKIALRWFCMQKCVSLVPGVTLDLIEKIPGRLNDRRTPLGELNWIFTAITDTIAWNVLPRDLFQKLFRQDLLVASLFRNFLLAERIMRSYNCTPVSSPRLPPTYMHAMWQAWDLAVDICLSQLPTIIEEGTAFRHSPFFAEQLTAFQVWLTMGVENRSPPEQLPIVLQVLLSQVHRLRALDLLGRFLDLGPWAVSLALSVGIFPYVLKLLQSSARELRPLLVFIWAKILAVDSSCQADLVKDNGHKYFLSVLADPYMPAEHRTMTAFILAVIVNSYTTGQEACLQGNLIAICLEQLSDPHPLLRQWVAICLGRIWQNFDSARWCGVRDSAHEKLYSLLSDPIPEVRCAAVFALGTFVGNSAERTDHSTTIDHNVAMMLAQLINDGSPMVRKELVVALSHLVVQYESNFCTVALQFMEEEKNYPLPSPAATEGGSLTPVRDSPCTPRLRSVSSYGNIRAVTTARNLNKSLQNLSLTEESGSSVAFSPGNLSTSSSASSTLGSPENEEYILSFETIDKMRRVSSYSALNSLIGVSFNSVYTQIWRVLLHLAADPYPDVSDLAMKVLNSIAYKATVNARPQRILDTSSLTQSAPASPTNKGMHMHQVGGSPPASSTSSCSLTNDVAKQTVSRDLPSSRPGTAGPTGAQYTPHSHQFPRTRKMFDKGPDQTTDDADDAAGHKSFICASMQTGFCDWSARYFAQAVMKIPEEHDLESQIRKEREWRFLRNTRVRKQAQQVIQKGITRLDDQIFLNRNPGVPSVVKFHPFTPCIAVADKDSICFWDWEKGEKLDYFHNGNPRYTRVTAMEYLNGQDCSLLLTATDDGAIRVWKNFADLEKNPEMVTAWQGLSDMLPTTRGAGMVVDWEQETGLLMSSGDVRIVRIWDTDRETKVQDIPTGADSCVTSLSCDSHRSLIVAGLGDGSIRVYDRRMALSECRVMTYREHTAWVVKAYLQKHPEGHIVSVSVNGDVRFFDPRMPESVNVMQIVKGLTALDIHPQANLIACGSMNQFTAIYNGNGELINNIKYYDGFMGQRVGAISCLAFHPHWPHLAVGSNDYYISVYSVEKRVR

Target: T1, FLAG-Tagged murine NUAK1 WT (mouse) (UniProt Q641K5)
T1 sequence: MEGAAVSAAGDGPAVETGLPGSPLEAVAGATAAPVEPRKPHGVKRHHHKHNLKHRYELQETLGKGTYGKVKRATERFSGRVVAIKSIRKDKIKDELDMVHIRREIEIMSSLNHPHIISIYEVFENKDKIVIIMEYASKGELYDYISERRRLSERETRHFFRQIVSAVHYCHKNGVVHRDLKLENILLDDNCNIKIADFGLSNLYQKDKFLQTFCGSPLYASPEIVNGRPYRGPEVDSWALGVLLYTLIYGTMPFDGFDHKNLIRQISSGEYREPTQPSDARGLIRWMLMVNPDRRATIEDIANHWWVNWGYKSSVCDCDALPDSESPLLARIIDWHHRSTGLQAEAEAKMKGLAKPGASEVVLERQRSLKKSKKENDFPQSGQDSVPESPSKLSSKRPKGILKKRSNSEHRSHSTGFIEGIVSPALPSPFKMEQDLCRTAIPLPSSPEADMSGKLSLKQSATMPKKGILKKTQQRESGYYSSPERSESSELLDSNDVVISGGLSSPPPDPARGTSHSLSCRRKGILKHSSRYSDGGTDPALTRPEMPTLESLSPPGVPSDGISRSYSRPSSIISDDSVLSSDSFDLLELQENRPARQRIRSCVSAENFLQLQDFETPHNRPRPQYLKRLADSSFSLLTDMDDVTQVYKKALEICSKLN
Test: affinity purification with mass spectrometry; FLAG immunoprecipitation from nuclear and cytoplasmic extracts of iMEFs expressing FLAG-mNUAK1 WT or KR44/71AA (pBABE FLAG as control); MudPIT; n = 3

Row | binding | Substance
1 | binds | Rictor (endogenous, iMEFs) (from UniProt Q6QI06 1-1708)
2 | binds | Raptor (endogenous, iMEFs) (from UniProt Q8K4Q0 1-1335)
